# Screening data, single-dose tests

Amino acid sequences for entries named in this document (tags omitted). Residues count along the entry.
UniProt Q8IDJ8, 1-583: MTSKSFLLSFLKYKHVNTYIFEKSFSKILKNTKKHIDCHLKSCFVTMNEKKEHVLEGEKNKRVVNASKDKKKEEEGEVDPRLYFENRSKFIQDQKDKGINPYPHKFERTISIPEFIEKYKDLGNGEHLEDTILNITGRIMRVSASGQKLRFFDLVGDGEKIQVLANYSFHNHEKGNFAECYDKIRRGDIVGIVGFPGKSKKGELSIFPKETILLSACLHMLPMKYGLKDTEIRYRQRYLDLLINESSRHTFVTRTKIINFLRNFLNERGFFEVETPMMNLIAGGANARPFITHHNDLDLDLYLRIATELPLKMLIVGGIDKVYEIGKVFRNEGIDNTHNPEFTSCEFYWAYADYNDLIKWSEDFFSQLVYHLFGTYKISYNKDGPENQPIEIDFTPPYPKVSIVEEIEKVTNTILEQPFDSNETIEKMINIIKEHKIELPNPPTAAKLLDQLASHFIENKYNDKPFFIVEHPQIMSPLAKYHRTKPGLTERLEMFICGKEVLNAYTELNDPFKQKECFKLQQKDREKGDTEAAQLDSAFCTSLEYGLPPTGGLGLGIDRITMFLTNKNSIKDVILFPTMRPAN

From ChEMBL document CHEMBL3988442, “University of Dundee, Small-Polar-MMV Screening Library” (2021).

The filed quantity is “Percent Effect” (%). The record does not define 0% and 100%; most values in the screen are far below 50% and negative numbers occur (in some assays of this library far below -100). The compounds are a random part of those screened.

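Lysine-tRNA ligase, Plasmodium falciparum 3D7 (UniProt Q8IDJ8). Enzyme assay of the cytosolic lysyl-tRNA synthetase in 384-well plates, read by luminescence. Concentration: 30 µM. Higher reads as stronger inhibition, judged from the few compounds that gave an IC50. Of about 69,000 compounds tested this way, about 49 (0.071%) reached 50% or more in at least one test.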

With COCCN(Cc1ccccn1)C(=O)c1ccc(=O)n(C)c1 the screen gave -0.392%.
With CN1CCN(S(C)(=O)=O)Cc2cccnc21 the screen gave 3.144%.
With CCSCCC(=O)NS(=O)(=O)c1ccc2c(c1)OCCO2 the screen gave 5.392%.
With Cn1cc(CNC(=O)C2CCCN(Cc3cccc(F)c3)C2)cn1 (stereo not shown) the screen gave 4.429%.
With Cc1ccc(C)c(C(=O)Nc2ccc(OC3CCN(C)CC3)cc2)c1 the screen gave 3.591%.
With CC(O)CNc1nc(-c2cccnc2)nc2c1CCC2 (stereo not shown) the screen gave 8.307%.
With CCn1c(NCc2ccc(OC)cc2)nc2c(C)nn(C)c2c1=O the screen gave 6.49%.
With COc1cc(CCC(=O)NC(C)C(=O)O)ccc1OCC(F)(F)F (stereo not shown) the screen gave 2.897%.
With CC(C)NC(=O)NC[C@H]1OC[C@@H](NCc2ccc(F)cc2)[C@@H]1O the screen gave -0.8881%.
With COc1ncccc1CNCc1c(C(C)C)nn(C)c1OC the screen gave 0.5995%.
With c1cnc(N2CCO[C@H]3CN(Cc4csnn4)C[C@H]32)cn1 the screen gave 1.711%.
With Cc1nc(C)n(C2CCCN(C(=O)CCOC(C)C)C2)n1 (stereo not shown) the screen gave -1.489%.
With Cc1nc(C2CCN(c3ccccc3)CC2)no1 the screen gave -1.398%.
With O=C(NCCN1CCC(c2cccs2)CC1)c1ccccc1C(F)(F)F the screen gave -1.171%.
With Cc1ncc(CNC(C)(C)CO)c2cc(C(=O)c3ccc(Br)cc3)oc12 the screen gave 4.217%.
With CC(Cn1ccnc1)NC(=O)C1(c2ccc(F)cc2)CCCC1 (stereo not shown) the screen gave -1.12%.
With COc1cc(N2C[C@H](C(=O)NCC3CC3)[C@@H]3CCO[C@@H]3C2)ncn1 the screen gave 2.633%.
With CSCc1cccc(S(=O)(=O)NCCCN2CCOCC2)c1 the screen gave 5.362%.
With O=C(CN1CC(c2nc(C3CC3)no2)C1)NCc1ccc(F)cc1 the screen gave 5.953%.
With CCN1CCC(N[C@@H]2CC[C@@H]2NC(=O)Cc2csc(C)n2)CC1 the screen gave 4.486%.
With CC(C)(C)n1ncc2c1CCCC2NCc1ccsc1 (stereo not shown) the screen gave 1.298%.
With CC1CCCCN1c1nc2c(c(=O)[nH]1)CCN(Cc1cccnc1)C2 (stereo not shown) the screen gave 4.662%.
With C=Cn1ncc(CN2C[C@@H]3CCCN3C[C@H]2Cc2ccccc2)c1C the screen gave -0.5827%.
With COCC1CN(C(=O)Cc2ccccn2)Cc2c1cnn2CC1CC1 (stereo not shown) the screen gave 3.718%.
With COC(=O)CC(NC(=O)c1cc(OC)c2c(c1)OCCO2)c1cccs1 (stereo not shown) the screen gave 3.431%.
With CN(C)C(=O)C1CN(c2ccncn2)CCN(C2CCOCC2)C1 (stereo not shown) the screen gave -2.25%.
With Cc1cc(-c2cnc(NCc3cccnc3)nc2C(C)C)on1 the screen gave -5.303%.
With COCC(C)(O)CNC(=O)c1cc(-c2cc(OC)ccc2OC)nn1C (stereo not shown) the screen gave 7.702%.
With CN(C)CCC(Nc1nc(N)nc2c1CCNCC2)c1ccccc1 (stereo not shown) the screen gave 3.73%.
With COc1cc(C)sc1C(=O)NCCC(=O)N(C)Cc1ccccc1 the screen gave 8.761%.
With Cc1cc(C)n(CC2CCCN2C(=O)c2cc[nH]n2)n1 (stereo not shown) the screen gave 2.081%.
With CN(C)C(=O)CC1CC2(CCN(c3ncccn3)CC2)c2ccccc21 (stereo not shown) the screen gave -2.3%.
With CC(=O)Nc1ccc(OCc2noc(C(=O)N3CCCCC3)n2)cc1 the screen gave 1.441%.
With Cc1cc(NC2CCc3nc(C(C)C)nn3C2)n2ncnc2n1 (stereo not shown) the screen gave 2.02%.
With CC(=O)Nc1ncc(S(=O)(=O)N2CCN(C3CCCCC3)CC2)s1 the screen gave -4.019%.
With Cc1ccoc1C(=O)N1CC[C@@H]2CN(C3CCOCC3)CCO[C@@H]2C1 the screen gave 2.157%.
With COC(=O)c1ccc(N2CCN(CCN3CCOCC3)C(C)C2)cc1 (stereo not shown) the screen gave -1.053%.

The last 4 entries again:

With Cc1cc(NC2CCc3nc(C(C)C)nn3C2)n2ncnc2n1 (stereo not shown) the screen gave 2.02%.
With CC(=O)Nc1ncc(S(=O)(=O)N2CCN(C3CCCCC3)CC2)s1 the screen gave -4.019%.
With Cc1ccoc1C(=O)N1CC[C@@H]2CN(C3CCOCC3)CCO[C@@H]2C1 the screen gave 2.157%.
With COC(=O)c1ccc(N2CCN(CCN3CCOCC3)C(C)C2)cc1 (stereo not shown) the screen gave -1.053%.